Assay [1] deals with HA-CHIP wild-type (carboxyl-terminus of Hsp70 interacting protein) (UniProt Q9UNE7). The experiment in a line: co-IP; rADSCs transfected for 24 h with HA-vector, HA-CHIP wild-type or HA-CHIP-K30A; lysate in 20 mM Tris-HCl pH 7.5, 1% NP-40, 150 mM NaCl, 1 mM EDTA; 400 ug protein; precipitated with anti-HA antibody (results), protein G magnetic beads, overnight at 4°C.
In assay [2] the target is HA-CHIP-K30A (TPR mutant) (UniProt Q9UNE7). Described as above.
Assay [3] addresses HA-CHIP wild-type (carboxyl-terminus of Hsp70 interacting protein) (UniProt Q9UNE7). In words: co-IP; another co-IP in rADSC lysate with CHIP overexpression (Supplementary Figure 1E); the methods name an anti-CHIP antibody, protein G magnetic beads, overnight at 4°C.

Sequences of proteins named here, by UniProt entry; tags and fusion partners are left off. A change or cut given only in a name is not applied to a line headed by its entry. Residues count along the entry.
UniProt Q9UNE7: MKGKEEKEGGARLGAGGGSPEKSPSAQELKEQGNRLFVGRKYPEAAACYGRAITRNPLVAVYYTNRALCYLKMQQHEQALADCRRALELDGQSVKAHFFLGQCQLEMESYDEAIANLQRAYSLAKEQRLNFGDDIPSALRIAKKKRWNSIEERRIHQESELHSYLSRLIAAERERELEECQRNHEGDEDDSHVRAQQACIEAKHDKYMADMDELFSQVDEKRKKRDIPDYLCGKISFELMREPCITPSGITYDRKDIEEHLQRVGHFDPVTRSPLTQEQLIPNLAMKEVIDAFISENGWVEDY
UniProt P24062, residues 742-1370: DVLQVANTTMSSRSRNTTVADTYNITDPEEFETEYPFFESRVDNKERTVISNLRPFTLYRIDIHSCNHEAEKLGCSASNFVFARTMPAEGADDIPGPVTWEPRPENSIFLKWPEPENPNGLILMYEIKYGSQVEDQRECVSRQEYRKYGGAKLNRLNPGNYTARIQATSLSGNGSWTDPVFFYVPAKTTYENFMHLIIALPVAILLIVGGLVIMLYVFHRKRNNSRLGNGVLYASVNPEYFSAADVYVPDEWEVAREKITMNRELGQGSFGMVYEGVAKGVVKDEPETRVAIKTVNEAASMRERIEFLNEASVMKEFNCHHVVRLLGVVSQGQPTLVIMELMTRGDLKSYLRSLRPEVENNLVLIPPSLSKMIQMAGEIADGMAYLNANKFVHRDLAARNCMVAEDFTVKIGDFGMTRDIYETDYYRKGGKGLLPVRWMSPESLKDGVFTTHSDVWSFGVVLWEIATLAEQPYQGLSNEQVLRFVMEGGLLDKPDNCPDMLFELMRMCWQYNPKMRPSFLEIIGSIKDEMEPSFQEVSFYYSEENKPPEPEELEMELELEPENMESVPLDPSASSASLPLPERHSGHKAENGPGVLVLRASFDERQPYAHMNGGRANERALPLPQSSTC

No constants are given. Whether binding was seen depends on the method and setting. In cells and extracts the contact can be indirect. Some binding calls cover weakened binding; strength is not graded here.

With “IGF1Rβ (beta subunit of the insulin-like growth factor-1 receptor) (from UniProt P24062 742-1370)”, the binding result in assay [1] is listed as “binds”; in assay [2], “no binding”; in assay [3], “binds”.

Source of the values: PMC10756089.
